# Results reported in the supplement of paper PMC3682954.
# Where a name gives a salt, the structure may show the parent alone. ± gives the standard deviation of the averaged measurements. This is one part of the list. Many values rest on one well or one pass, so single values are uncertain.
# Test system: RAW 264.7
# Assay: HMGB1-induced TNF-alpha production relative to HMGB1-stimulated control; higher = more TNF-alpha secretion (less inhibition)
# Conditions: stimulus: HMGB1 5 ug/ml, 18 h
# [1] = compound concentration: 1 ug/ml
SMILES,HMGB1-induced TNF-alpha production (compound concentration: 3 uM),HMGB1-induced TNF-alpha production [1]
O=C1Nc2ccc(I)cc2/C1=C/c1cc(Br)c(O)c(Br)c1,72.1%,–
O=C1N=C(O)NC1(c1ccccc1)c1ccccc1,97.2%,–
O=C1N=C(O)NC1(c1ccccc1)c1ccccc1 [Phenytoin sodium],88.7%,–
COc1cc(NS(=O)(=O)c2ccc(N)cc2)nc(OC)n1 [Sulfadimethoxine],92.5 ± 2.3%,–
COc1cc(NS(=O)(=O)c2ccc(N)cc2)nc(OC)n1,93.3%,–
C=N[C@@H](C(=O)N[C@@H]1C(=O)N2[C@@H]1SC(C)(C)[C@@H]2C(=O)O)c1ccccc1 [Metampicillin sodium salt],105%,–
CC[N+](CC)(CC(=O)Nc1c(C)cccc1C)Cc1ccccc1 [Denatonium benzoate],68%,–
CC[N+](CC)(CC(=O)Nc1c(C)cccc1C)Cc1ccccc1,97.7%,–
CC1(C)O[C@@H]2[C@@H](CO[C@@]3(COS(N)(=O)=O)OC(C)(C)O[C@@H]23)O1 [Topiramate],127%,–
CC1(C)O[C@@H]2[C@@H](CO[C@@]3(COS(N)(=O)=O)OC(C)(C)O[C@@H]23)O1,89.7 ± 13%,–
COc1cc2ccc(=O)oc2cc1O [Scopoletin],–,58.3%
COc1cc2c(cc1OC)-c1c/c(=N\c3c(C)cc(C)cc3C)n(C)c(=O)n1CC2 [Trequinsin hydrochloride],99.2%,–
COc1cc2c(cc1OC)-c1c/c(=N\c3c(C)cc(C)cc3C)n(C)c(=O)n1CC2 [Trequinsin HCl],79.5%,–
Cc1cccc(Nc2ccncc2S(=O)(=O)NC(=O)NC(C)C)c1 [Torsemide],101%,–
Cc1cccc(Nc2ccncc2S(=O)(=O)NC(=O)NC(C)C)c1,94.3%,–
O=C(O)CCCC[C@@H]1CCSS1,94.3%,–
COC(=O)C1OC(Oc2cc(O)c3c(c2)O[C@H](c2ccccc2O)CC3=O)C(O)C(O)C1O (stereo partly specified),–,71.9%
NC(=O)N1c2ccccc2CC(=O)c2ccccc21 [Oxcarbazepine],77.7 ± 13%,–
NC(=O)N1c2ccccc2CC(=O)c2ccccc21,92.4%,–
NC(=O)N1c2ccccc2CC(=O)c2ccccc21 [Trileptal],104%,–
NC1=NCC2c3ccccc3Cc3ccccc3N12 (stereo unspecified) [Epinastine hydrochloride],74.5%,–
"O=C(C=Cc1ccc(O)cc1)c1ccccc1O [2',4-Dihydroxychalcone]",–,80.5%
CC(C)Cn1cnc2c(N)nc3ccccc3c21 [Imiquimod],175 ± 97%,–
CC(=O)OCC(=O)[C@@]1(O)[C@H](OC(C)=O)C[C@H]2[C@@H]3CCC4=CC(=O)C=C[C@]4(C)[C@@]3(F)[C@@H](O)C[C@@]21C,39.8%,–
O=C1OC(=O)[C@H]2[C@@H]1[C@@H]1CC[C@H]2O1,129%,–

SMILES,HMGB1-induced TNF-alpha production (compound concentration: 3 uM),HMGB1-induced TNF-alpha production [1]
O=C1OC(=O)[C@H]2[C@@H]1[C@@H]1CC[C@H]2O1 [Norcantharidin],151%,144%
CN(C)CC[C@@H](c1ccc(Br)cc1)c1ccccn1,110%,–
CC(C)NC(=N)NC(=N)Nc1ccc(Cl)cc1,80.5%,–
CC(C)NC(=N)NC(=N)Nc1ccc(Cl)cc1 [Proguanil hydrochloride],77.1%,–
COc1ccc2c3c1O[C@H]1C[C@@H](O)C=C[C@@]31CCN(C)C2 [Galanthamine hydrobromide],116%,–
COc1ccc2c3c1O[C@H]1C[C@@H](O)C=C[C@@]31CCN(C)C2 [Galanthamine],95.7 ± 11%,–
COc1ccc2c3c1O[C@H]1C[C@@H](O)C=C[C@@]31CCN(C)C2,80.1%,–
COc1ccc2c3c1O[C@H]1C[C@@H](O)C=C[C@@]31CCN(C)C2 [(-)Galanthamine],–,69.9%
CCCCC1(C2CCCC2)Cc2cc(OCC(=O)O)c(Cl)c(Cl)c2C1=O (stereo in doubt) [R(+)-Butylindazone],74.9%,–
C[S+](CC[C@H](N)C(=O)I)C[C@H]1O[C@@H](n2cnc3c(N)ncnc32)[C@H](O)[C@@H]1O (stereo partly drawn) [S-(5'-Adenosyl)-L-methionine iodide],–,68.9%
CCCC(=O)O[C@]1(C(=O)CO)CC[C@H]2[C@@H]3CCC4=CC(=O)CC[C@]4(C)[C@H]3[C@@H](O)C[C@@]21C [Hydrocortisone 17-butyrate],–,33.1%
CCCC(=O)O[C@]1(C(=O)CO)CC[C@H]2[C@@H]3CCC4=CC(=O)CC[C@]4(C)[C@H]3[C@@H](O)C[C@@]21C,46%,–
CC1(C)S[C@@H]2[C@H](NC(=O)COc3ccccc3)C(=O)N2[C@H]1C(=O)O,114%,–
Cc1nnc(SCC2=C(C(=O)O)N3C(=O)[C@@H](NC(=O)Cn4cnnn4)[C@H]3SC2)s1 [Cefazolin sodium],76.2%,–
Cc1nnc(SCC2=C(C(=O)O)N3C(=O)[C@@H](NC(=O)Cn4cnnn4)[C@H]3SC2)s1 [Cefazolin sodium salt],99.4%,–
Cc1nnc(SCC2=C(C(=O)O)N3C(=O)[C@@H](NC(=O)Cn4cnnn4)[C@H]3SC2)s1,81.4%,–
Nc1nc2c(ncn2[C@@H]2O[C@H](CO)[C@@H](O)[C@@H]2O)c(=O)[nH]1 [Ara-G hydrate],103%,–
O=c1[nH]c(=O)n([C@H]2C[C@H](O)[C@@H](CO)O2)cc1C(F)(F)F,73.1%,–
O=c1[nH]c(=O)n([C@H]2C[C@H](O)[C@@H](CO)O2)cc1C(F)(F)F [Trifluorothymidine],–,62.8%
O=c1[nH]c(=O)n([C@H]2C[C@H](O)[C@@H](CO)O2)cc1C(F)(F)F [Trifluridine],136%,–
CCCCCCCCNC(C)C(O)c1ccc(SC(C)C)cc1 (stereo unspecified),90.3%,–
CCCCCCCCNC(C)C(O)c1ccc(SC(C)C)cc1 (stereo unspecified) [Suloctidil],56.1%,–
Cc1cc2nc3c(=O)[nH]c(=O)nc-3n(C[C@H](O)[C@H](O)[C@H](O)COP(=O)(O)OP(=O)(O)OC[C@H]3O[C@@H](n4cnc5c(N)ncnc54)[C@H](O)[C@@H]3O)c2cc1C [Flavin adenine dinucleotide disodium salt],–,71%
C[C@H]1O[C@@H](O[C@H]2[C@@H](O)C[C@H](O[C@H]3[C@@H](O)C[C@H](O[C@H]4CC[C@@]5(C)[C@H](CC[C@@H]6[C@@H]5CC[C@]5(C)[C@@H](C7=CC(=O)OC7)CC[C@]65O)C4)O[C@@H]3C)O[C@@H]2C)C[C@H](O)[C@@H]1O [Digitoxin],–,72.1%
C[C@H]1O[C@@H](O[C@H]2[C@@H](O)C[C@H](O[C@H]3[C@@H](O)C[C@H](O[C@H]4CC[C@@]5(C)[C@H](CC[C@@H]6[C@@H]5CC[C@]5(C)[C@@H](C7=CC(=O)OC7)CC[C@]65O)C4)O[C@@H]3C)O[C@@H]2C)C[C@H](O)[C@@H]1O,82.7%,–

# Full records from above. Values in the order: HMGB1-induced TNF-alpha production (compound concentration: 3 uM) | HMGB1-induced TNF-alpha production [1]
# NC1=NCC2c3ccccc3Cc3ccccc3N12 (stereo unspecified) [Epinastine hydrochloride] in the list: 74.5% | –
# CC1(C)O[C@@H]2[C@@H](CO[C@@]3(COS(N)(=O)=O)OC(C)(C)O[C@@H]23)O1 in the list: 89.7 ± 13% | –
# O=c1[nH]c(=O)n([C@H]2C[C@H](O)[C@@H](CO)O2)cc1C(F)(F)F [Trifluridine] in the list: 136% | –
